A short description of the assay: qHTS Assay for Lipid Storage Modulators in Drosophila S3 Cells.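 As to cell number change: cells counted by Cell Tracker Red CMTPX staining in the red channel.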 As to conditions: BODIPY lipid droplet fluorescence, 18-24 h; for cell number change: measured here: cell count max response, cells fed with added oleic acid. Summed up:
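Laser-scanning cytometry quantifies lipid droplet accumulation (500–530 nm total intensity; droplet/cell object ratio) in oleic acid-fed (400 uM added) Drosophila S3 cells treated with a concentration series. 20 uM Triacsin C defined 100% inhibition.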
A general note: qHTS replaces the single test concentration by a dilution series.

Where [1] appears, read: measured here: cell number channel AC50, cells fed with added oleic acid.
Setting [2] is: measured here: lipid fluorescence (Fed channel) AC50, cells fed with added oleic acid.

The AC50 is the concentration giving half of the maximal activity seen. The low end stands for activity at low concentration, the high end for activity only at high concentration.

The other results are listed elsewhere or left out. The main result of the screen is listed elsewhere. These columns were measured beside it and carry no call. Compounds called inactive in the main read-out are mostly missing here. Words in brackets tell the shape of the fitted curve; partial curves, single points and poor fits give uncertain potencies.

As to `Cc1cc(C)nc(NS(=O)(=O)c2ccc(NC(=O)c3ccc4c(c3)OCCO4)cc2)n1`, the cell number change came out at 3.46%. Regarding `CCc1cc2c(=O)n(CCCOC)c(SCC(=O)Nc3oc(C)c4c(C)n[nH]c(=O)c34)nc2s1`, the cell number change was found to be 78.3%. The AC50 under setting [1] is 1.46 µM [rising, full curve]. `CCc1ccc(C(O)(CC)C(CN2CCOCC2)c2ccccc2)cc1` (configuration not stated): the cell number change was -27.7%. Further, the AC50 under setting [2] was 18.4 µM [falling, single point]. For the compound `CCCN(CC(=O)Nc1ccccc1OC)C(=O)Cc1ccc2c(c1)CCC2`, the cell number change is -11.8%. Besides, the AC50 under setting [2] was 0.116 µM [falling, full curve, poor fit]. Take `O=C(O)c1ccccc1OCc1ccccc1Br`: the cell number change is -27.4%. The AC50 under setting [2] was 29.1 µM [falling, single point]. As to `CCOC(=O)[C@@H]1[C@H]2COc3cc(OC)ccc3[C@H]2N2C(=O)N(c3cccc(Cl)c3)C(=O)[C@@]12C`, the cell number change worked out at 39.8%. In addition, under setting [2], the AC50 was 29.1 µM [rising, single point]. As to `COc1ccc(OC)c(N(CC(=O)Nc2cccnc2)S(C)(=O)=O)c1`, the cell number change is 60.5%. Moreover, the half-maximal activity concentration (AC50) under setting [1] was 16.4 µM [rising, partial curve]. For `Cc1ccc(/C=N/N2CCN(c3ccccn3)CC2)o1`, the concentration at half-maximal activity (AC50) under setting [2] is 0.0058 µM [rising, full curve, poor fit]. Take `CCc1ccc(-n2c(=O)c3c(C)c(C(=O)N(C)C)sc3n(CC(=O)NCc3ccco3)c2=O)cc1`: the cell number change is -15.7%. Regarding `CC(=O)O[C@]1(C(C)=O)CC[C@H]2[C@@H]3C=C(C)C4=CC(=O)CC[C@@H]4[C@H]3CC[C@@]21C`, the cell number change was 9.43%. In addition, the concentration at half-maximal activity (AC50) under setting [2] is 0.517 µM [rising, full curve]. In the case of `O=C1CC(c2cccc(F)c2)SC(N(c2ccccc2)c2ccccc2)=N1` (configuration not stated), the cell number change is 165%. Also, under setting [1], the AC50 was 23.1 µM [rising, partial curve].

On to `COc1ccc(CNC(=O)COC(=O)C2=COCCO2)cc1`, for which the cell number change came out at 26.7%. The AC50 under setting [2] was 1.46 µM [rising, full curve]. On to `O=c1[nH]c2ccc(NC(=S)NC3CCCCC3)cc2[nH]1`, for which, under setting [2], the half-maximal activity concentration (AC50) is 0.58 µM [falling, single point]. Turning to `CNS(=O)(=O)c1cccc(C(=O)OC2CCOC2=O)c1` (configuration not stated), the cell number change is -18.1%. Turning to `Cc1nc2ccc(NC(=O)c3cccc(S(=O)(=O)N4CC(C)OC(C)C4)c3)cc2s1` (configuration not stated), the AC50 under setting [1] was 0.82 µM [rising, full curve, poor fit].

Consider `CCOc1ccccc1/C=N/Nc1cc(C)nc2ccc(C)cc12`, for which the cell number change is -12.6%. For the compound `Cc1ccnc(NC(=O)c2cc3ccccc3o2)c1`, the cell number change was -14.7%. Also, the AC50 under setting [2] was 0.058 µM [rising, full curve, poor fit]. `CCCOC(=O)C1[C@H]2C(=O)N(CCCOC)C[C@]23C=C[C@H]1O3` (some centres not stated): the cell number change was 10.4%. In addition, under setting [2], the AC50 is 0.103 µM [rising, full curve, poor fit]. Turning to `Cn1c(N)c(C(=O)CSc2nnc(Cc3cccs3)n2C2CC2)c(=O)n(C)c1=O`, the cell number change amounted to 23.9%. Also, under setting [2], the concentration at half-maximal activity (AC50) was 2.06 µM [rising, full curve]. Take `COc1ccc(NC(=O)CCCC(=O)O)cc1Cl`: the concentration at half-maximal activity (AC50) under setting [2] was 0.116 µM [rising, full curve].

Take `O=C(O)CN(c1ccccn1)S(=O)(=O)c1ccc(Cl)cc1`: the cell number change is -15.3%. For the same compound, the half-maximal activity concentration (AC50) under setting [1] is 1.16 µM [falling, full curve, poor fit]. Regarding `CCOc1nc(-c2ccncc2)nc2ccccc12`, the cell number change was -38.2%. Also, under setting [1], the AC50 was 29.1 µM [falling, single point]. The concentration at half-maximal activity (AC50) under setting [2] was 29.1 µM [falling, single point].

On to `COc1ccc(C2CC(c3cccs3)=NN2C(=O)COC(=O)c2cc3ccccc3cc2O)cc1OC` (configuration not stated), for which the cell number change was found to be 15.3%. Moreover, under setting [2], the AC50 was 0.058 µM [rising, full curve, poor fit]. Take `CCCn1c(N)c(N(CCOC)C(=O)C(C)Oc2ccc(F)cc2)c(=O)[nH]c1=O` (configuration not stated): the cell number change is -23.3%. For the compound `COc1ccc(C(=O)OCC(=O)Nc2c(C)cccc2C)cc1`, the cell number change worked out at 40.3%. The concentration at half-maximal activity (AC50) under setting [1] was 5.8 µM [rising, partial curve].

For `CCSc1nnc(NC(=O)c2cc(-c3ccccc3O)n[nH]2)s1`, the cell number change turned out to be 6.79%. On to `O=C(O)c1ccc(CNC(=O)c2ccc(C(F)(F)F)cc2)cc1`, for which the cell number change was -53.6%. The half-maximal activity concentration (AC50) under setting [1] was 29.1 µM [falling, single point]. `Cc1c(-c2ccccc2)oc2nc3c(c(=O)n(C)c(=O)n3C)n12`: the cell number change was -46.4%. Further, under setting [1], the AC50 is 7.31 µM [falling, partial curve]. Consider `CCC1(C)SC(N)=NN1C(C)=O` (configuration not stated), for which the cell number change is -1.55%. `NC(=O)C1CCN(C(=O)CSc2ccccn2)CC1`: the cell number change was -33.1%. Further, the AC50 under setting [1] was 0.082 µM [falling, full curve, poor fit]. Besides, the concentration at half-maximal activity (AC50) under setting [2] was 6.51 µM [falling, single point].

As for `O=C(COc1ccc(Br)cc1Br)NC(=O)NC1CCCC1`, the cell number change is -31.2%. The half-maximal activity concentration (AC50) under setting [1] is 32.6 µM [falling, single point]. In addition, the AC50 under setting [2] is 32.6 µM [falling, single point].

Take `Cc1cc(NC(=O)c2cc(-c3ccccc3)on2)no1`: the cell number change was found to be 13.2%. Moreover, under setting [2], the half-maximal activity concentration (AC50) is 29.1 µM [falling, single point]. For `O=C(NC1C/C(=N/O)c2cc3c(cc21)OCO3)C(F)(F)F` (configuration not stated), the cell number change came to 9.62%. Moreover, the AC50 under setting [2] was 2.31 µM [rising, full curve, poor fit]. For `Cc1ccc(N2CC(C(=O)NCc3n[nH]c(=O)c4ccccc34)CC2=O)cc1` (configuration not stated), the cell number change was -0.578%. In the case of `CN(CCC1CCOCC1)C(=O)c1cc(COc2c(F)cccc2F)on1`, the cell number change is -4.01%. For the same compound, under setting [2], the half-maximal activity concentration (AC50) was 25.9 µM [rising, partial curve]. Turning to `O=C(Nc1cccc(-n2cnnn2)c1)c1cc(Cl)ccc1Cl`, the AC50 under setting [2] is 2.59 µM [rising, full curve]. Turning to `O=C(Nc1ccccc1C(=O)NCc1ccccc1)C1=CSCCO1`, the cell number change came out at 5.6%. Also, the concentration at half-maximal activity (AC50) under setting [2] is 6.51 µM [rising, partial curve, poor fit]. As to `Cc1cccc(C(=O)c2ccccc2C(=O)O)c1`, the cell number change was -33.7%. For the same compound, under setting [1], the concentration at half-maximal activity (AC50) is 29.1 µM [falling, single point]. In addition, under setting [2], the AC50 was 20.6 µM [falling, single point]. As for `CS(=O)(=O)N(CC(=O)NCCSCc1ccccc1)c1ccccc1F`, under setting [2], the concentration at half-maximal activity (AC50) was 0.58 µM [rising, single point].

As for `O=c1ccc2ccc(Oc3ccc([N+](=O)[O-])cc3[N+](=O)[O-])cc2o1`, the cell number change was -20.5%. The AC50 under setting [2] was 18.4 µM [falling, partial curve].

As to `O=C(N/N=C\c1cccnc1)c1ccc(Cl)cc1Cl`, the cell number change was determined as 17.8%. Moreover, the concentration at half-maximal activity (AC50) under setting [2] was 0.58 µM [rising, full curve, poor fit].

These data come from PubChem BioAssay AID2685 (National Center for Advancing Translational Sciences (NCATS), 2010).
